Weaker means in comparison with the reference protein, sequence or condition of that experiment. Tags and fusion partners may be left off the protein sequences shown.
Biological target: T1, PUF (S8) S863N,N899S,Q903E,C935N,N971C,H972Y,C1007N,N1043C,S1079N,E1083Q,N1122C (human) (UniProt Q14671)
T1 sequence (looked up, limits assumed): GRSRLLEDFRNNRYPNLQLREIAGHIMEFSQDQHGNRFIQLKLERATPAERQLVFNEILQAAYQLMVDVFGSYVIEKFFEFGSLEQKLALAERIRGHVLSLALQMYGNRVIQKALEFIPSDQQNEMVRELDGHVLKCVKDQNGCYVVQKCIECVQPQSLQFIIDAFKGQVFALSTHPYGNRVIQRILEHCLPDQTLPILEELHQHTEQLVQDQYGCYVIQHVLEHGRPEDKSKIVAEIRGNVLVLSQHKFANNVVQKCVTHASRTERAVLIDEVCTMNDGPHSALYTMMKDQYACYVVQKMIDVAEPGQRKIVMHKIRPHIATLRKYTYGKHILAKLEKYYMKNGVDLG
Experiment: fluorescence polarization/anisotropy
Settings: noncognate, 1 nM RNA, KD not determined, little binding at 300 nM protein; 20 mM Tris-HCl pH 7.5, 0.5 mM EDTA, 50 mM KCl, 0.1 mg/ml BSA; temperature not stated; protein corrected for active fraction (about 30%); KD mean ± SD, n = 3; recombinant protein; protein details: His-tag (pET28a); label: 5' 6-carboxyfluorescein

CCAGAAUUGUAUAUAUUCG [WT RNA (UGUAUAUA)]
binding result: binds more weakly
